# In the supplement of paper PMC12819154, “High-throughput peptide-centric local stability assay extends protein–ligand identification to membrane proteins, tissues and bacteria” (Nature Structural & Molecular Biology, 2025):
# Sequences of proteins named here, by UniProt entry; tags and fusion partners are left off. A change or cut given only in a name is not applied to a line headed by its entry.
# UniProt Q8N108: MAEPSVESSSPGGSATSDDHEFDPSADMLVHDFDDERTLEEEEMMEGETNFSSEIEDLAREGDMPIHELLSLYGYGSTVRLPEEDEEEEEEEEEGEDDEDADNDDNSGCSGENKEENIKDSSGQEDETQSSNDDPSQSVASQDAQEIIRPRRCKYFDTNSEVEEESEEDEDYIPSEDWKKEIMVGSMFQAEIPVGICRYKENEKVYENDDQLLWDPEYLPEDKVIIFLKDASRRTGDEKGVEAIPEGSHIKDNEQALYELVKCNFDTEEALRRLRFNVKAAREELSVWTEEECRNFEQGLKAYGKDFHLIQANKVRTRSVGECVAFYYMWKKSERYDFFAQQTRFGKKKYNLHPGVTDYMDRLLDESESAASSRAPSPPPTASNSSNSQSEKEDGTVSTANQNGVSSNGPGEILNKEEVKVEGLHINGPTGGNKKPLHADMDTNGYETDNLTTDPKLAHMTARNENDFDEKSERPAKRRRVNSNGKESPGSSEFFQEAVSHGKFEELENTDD
# UniProt Q86WZ6: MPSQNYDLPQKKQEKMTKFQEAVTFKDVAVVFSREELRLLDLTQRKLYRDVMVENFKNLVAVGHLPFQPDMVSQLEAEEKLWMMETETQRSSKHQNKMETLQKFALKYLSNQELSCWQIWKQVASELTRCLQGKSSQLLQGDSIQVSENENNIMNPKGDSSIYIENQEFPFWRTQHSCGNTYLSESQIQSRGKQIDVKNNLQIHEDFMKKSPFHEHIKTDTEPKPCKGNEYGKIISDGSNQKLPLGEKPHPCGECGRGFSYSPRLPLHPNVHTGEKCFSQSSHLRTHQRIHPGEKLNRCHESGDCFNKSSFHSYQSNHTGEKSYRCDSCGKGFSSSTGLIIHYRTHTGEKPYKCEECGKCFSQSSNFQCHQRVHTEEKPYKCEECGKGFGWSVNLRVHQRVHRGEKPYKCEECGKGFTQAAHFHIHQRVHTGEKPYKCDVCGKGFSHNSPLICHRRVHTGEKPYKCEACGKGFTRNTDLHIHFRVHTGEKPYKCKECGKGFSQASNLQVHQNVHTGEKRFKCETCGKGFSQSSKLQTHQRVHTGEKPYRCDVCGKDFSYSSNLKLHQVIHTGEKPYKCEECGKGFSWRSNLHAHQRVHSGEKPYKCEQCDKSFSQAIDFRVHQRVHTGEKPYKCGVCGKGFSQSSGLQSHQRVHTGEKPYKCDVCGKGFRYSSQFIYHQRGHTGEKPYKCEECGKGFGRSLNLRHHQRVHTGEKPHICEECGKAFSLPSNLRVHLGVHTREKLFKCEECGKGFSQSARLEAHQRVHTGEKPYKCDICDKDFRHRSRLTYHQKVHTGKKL
# UniProt Q8N122, whole entry: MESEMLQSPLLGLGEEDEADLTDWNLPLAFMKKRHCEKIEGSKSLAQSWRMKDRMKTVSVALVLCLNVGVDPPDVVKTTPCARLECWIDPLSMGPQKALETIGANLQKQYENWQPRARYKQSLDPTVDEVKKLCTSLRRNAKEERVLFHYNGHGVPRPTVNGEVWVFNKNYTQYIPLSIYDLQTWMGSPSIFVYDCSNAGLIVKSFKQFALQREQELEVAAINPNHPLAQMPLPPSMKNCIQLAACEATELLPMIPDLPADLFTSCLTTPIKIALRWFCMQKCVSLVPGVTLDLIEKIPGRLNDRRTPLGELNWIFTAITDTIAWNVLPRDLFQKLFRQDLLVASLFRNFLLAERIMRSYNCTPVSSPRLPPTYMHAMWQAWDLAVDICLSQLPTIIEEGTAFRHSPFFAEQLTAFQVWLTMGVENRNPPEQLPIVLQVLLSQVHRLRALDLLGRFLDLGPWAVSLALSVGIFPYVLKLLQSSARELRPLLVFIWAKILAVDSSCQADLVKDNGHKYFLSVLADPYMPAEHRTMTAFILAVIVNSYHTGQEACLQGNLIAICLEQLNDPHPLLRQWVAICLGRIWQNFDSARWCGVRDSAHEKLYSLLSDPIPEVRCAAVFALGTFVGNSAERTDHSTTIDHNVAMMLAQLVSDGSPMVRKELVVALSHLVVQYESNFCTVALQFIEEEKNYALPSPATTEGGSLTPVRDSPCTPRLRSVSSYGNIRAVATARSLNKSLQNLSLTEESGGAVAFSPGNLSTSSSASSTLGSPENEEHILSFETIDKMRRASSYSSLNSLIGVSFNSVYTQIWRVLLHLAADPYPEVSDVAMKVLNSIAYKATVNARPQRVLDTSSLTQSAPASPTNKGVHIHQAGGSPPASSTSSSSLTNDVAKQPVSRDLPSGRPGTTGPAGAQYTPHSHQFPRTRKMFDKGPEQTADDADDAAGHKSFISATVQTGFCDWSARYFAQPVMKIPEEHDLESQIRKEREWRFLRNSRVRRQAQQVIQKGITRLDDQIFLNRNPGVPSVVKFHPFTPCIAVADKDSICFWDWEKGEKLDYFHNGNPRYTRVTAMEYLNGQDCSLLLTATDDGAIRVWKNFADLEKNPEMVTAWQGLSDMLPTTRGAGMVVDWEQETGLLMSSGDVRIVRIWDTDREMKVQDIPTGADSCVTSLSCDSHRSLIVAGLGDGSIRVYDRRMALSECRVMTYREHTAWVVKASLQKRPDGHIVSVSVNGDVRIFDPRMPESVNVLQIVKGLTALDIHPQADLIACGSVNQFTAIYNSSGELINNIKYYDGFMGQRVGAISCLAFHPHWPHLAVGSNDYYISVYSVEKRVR
# UniProt Q8IXQ5, whole entry: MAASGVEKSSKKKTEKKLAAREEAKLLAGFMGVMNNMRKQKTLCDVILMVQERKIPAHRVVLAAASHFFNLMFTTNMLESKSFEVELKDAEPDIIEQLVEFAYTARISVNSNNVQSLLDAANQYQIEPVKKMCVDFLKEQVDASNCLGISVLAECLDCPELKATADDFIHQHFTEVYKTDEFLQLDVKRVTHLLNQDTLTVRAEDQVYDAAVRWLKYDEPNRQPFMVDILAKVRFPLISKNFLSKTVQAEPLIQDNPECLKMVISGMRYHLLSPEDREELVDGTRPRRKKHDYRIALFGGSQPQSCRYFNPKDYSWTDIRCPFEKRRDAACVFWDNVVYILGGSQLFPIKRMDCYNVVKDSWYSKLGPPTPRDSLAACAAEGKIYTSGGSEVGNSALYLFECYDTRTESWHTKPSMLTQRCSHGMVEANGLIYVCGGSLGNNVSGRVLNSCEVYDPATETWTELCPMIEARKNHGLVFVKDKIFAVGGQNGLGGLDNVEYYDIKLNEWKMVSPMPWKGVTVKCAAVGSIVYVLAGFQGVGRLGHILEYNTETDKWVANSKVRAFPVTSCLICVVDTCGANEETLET
# UniProt Q8IZL2, whole entry: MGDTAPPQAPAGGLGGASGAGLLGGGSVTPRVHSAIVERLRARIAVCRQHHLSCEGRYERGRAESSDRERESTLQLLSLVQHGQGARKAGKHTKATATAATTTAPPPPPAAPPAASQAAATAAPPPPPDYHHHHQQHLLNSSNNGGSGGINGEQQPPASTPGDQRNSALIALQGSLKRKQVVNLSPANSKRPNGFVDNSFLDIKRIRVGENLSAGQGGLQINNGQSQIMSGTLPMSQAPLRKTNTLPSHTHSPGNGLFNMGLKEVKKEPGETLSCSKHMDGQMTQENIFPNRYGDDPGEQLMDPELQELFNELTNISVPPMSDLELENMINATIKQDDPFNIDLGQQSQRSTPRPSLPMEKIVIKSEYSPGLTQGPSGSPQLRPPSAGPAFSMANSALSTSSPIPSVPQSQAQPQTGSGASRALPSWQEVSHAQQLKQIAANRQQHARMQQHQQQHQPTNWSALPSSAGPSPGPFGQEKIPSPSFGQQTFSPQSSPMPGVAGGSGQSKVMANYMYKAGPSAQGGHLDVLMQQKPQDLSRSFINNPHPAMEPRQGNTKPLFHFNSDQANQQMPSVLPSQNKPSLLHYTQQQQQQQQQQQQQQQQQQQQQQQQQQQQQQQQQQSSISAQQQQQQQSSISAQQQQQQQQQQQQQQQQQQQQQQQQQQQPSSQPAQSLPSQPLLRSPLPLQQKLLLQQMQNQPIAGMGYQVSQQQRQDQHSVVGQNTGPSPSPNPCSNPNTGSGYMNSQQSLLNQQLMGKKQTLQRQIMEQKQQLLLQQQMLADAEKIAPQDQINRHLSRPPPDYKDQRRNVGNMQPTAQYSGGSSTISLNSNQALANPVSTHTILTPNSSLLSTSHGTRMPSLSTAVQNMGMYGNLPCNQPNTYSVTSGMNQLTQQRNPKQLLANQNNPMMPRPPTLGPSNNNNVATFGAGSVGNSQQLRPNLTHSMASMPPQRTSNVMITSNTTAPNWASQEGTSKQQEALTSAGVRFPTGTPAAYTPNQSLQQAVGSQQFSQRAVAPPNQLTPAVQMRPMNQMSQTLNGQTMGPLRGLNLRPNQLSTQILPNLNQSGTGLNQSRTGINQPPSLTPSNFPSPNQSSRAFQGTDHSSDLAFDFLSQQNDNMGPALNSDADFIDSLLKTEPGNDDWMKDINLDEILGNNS
# UniProt Q8N3R9: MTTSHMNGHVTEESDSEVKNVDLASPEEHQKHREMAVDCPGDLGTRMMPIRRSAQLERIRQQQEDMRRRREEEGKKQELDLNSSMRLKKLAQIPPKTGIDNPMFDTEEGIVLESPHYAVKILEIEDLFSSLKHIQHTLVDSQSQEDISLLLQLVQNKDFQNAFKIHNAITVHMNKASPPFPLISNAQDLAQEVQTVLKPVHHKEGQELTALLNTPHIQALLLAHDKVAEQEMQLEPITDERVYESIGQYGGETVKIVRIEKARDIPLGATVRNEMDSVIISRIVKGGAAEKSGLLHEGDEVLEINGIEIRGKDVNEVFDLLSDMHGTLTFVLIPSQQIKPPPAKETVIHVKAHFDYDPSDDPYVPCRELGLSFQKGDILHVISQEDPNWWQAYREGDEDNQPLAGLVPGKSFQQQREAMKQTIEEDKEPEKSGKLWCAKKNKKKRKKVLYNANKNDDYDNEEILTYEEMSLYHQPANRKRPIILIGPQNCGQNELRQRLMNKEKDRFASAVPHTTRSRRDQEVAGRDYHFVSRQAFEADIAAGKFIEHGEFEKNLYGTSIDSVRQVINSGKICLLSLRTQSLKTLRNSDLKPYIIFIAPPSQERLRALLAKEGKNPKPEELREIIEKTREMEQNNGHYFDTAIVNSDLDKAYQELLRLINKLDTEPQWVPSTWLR
# UniProt Q86X29: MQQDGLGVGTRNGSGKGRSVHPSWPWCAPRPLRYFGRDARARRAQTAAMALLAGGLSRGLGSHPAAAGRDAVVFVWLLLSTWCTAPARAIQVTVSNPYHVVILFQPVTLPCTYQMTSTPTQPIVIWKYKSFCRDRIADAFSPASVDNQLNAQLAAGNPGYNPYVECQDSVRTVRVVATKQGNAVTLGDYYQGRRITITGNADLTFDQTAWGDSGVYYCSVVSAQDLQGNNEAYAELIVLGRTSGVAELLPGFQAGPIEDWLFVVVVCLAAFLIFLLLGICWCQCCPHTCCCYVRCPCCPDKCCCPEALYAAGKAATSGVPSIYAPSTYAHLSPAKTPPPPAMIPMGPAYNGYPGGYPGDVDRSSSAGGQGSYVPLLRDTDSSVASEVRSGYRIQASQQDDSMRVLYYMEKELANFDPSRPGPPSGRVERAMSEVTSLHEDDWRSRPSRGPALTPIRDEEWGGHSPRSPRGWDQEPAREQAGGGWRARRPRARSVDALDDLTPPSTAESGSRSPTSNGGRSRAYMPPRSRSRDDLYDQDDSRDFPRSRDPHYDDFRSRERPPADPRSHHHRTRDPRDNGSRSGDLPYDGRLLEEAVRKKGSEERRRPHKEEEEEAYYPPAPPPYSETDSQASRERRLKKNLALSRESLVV
# UniProt Q8IYI6: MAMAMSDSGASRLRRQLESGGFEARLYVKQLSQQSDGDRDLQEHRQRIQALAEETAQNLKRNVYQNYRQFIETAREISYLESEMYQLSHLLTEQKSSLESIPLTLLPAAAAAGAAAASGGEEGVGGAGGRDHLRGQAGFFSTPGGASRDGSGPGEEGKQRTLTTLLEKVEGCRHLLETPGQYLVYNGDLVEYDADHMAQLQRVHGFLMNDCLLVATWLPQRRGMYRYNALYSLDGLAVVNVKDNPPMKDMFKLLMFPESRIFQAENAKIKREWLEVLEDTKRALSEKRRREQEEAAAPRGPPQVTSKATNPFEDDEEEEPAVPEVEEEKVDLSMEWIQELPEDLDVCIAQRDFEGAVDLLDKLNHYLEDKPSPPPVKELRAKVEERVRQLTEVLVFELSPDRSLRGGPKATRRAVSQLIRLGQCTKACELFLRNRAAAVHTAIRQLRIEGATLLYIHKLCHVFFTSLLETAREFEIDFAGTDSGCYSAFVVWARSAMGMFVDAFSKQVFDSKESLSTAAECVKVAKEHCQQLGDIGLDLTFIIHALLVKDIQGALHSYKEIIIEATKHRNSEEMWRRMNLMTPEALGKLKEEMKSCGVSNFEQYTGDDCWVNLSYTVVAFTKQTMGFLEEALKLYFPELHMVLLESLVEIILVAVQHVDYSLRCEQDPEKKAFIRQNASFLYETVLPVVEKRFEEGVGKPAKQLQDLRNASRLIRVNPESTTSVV
# Some of the results follow. Most values lie at the level of the controls, where differences are scatter.
# Compound: CN[C@@H]1C[C@H]2O[C@@](C)([C@@H]1OC)n1c3ccccc3c3c4c(c5c6ccccc6n2c5c31)C(=O)NC4 [staurosporine]
# Experiment: log2 fold change of tryptic peptide abundance, ligand vs vehicle (limited proteolysis) (log2 ratio); higher = more trypsin-susceptible (destabilized)
# Settings: ligand concentration: 20 uM; sample: K562 cleared lysate; digestion: 4 min, 22 C (HT-PELSA RT4min, Orbitrap Astral)
row,Target,log2 fold change
1,"UniProt Q8IV42 (peptide sequence: YEVYQLAR, peptide start residue: 161)",-0.335
2,"ZNF687 (peptide sequence: SSSSTEQSLMMGLR, peptide start residue: 1116) (UniProt Q8N1G0)",-0.369
3,"MIER1 (peptide sequence: KPLHADMDTNGYETDNLTTDPK, peptide start residue: 435) (UniProt Q8N108)",0.527
4,"PIAS4 (peptide sequence: NMVMSFR, peptide start residue: 10) (UniProt Q8N2W9)",0.187
5,"UniProt Q86XN6 (peptide sequence: AFSQGLLTFR, peptide start residue: 2)",-0.323
6,"UniProt Q86WZ6 (peptide sequence: GFGWSVNLR, peptide start residue: 388)",0.648
7,"RPTOR (peptide sequence: SVSSYGNIR, peptide start residue: 719) (UniProt Q8N122)",0.343
8,"SBF2 (peptide sequence: WFVLDVTK, peptide start residue: 1764) (UniProt Q86WG5)",-0.452
9,"KLHL7 (peptide sequence: ATADDFIHQHFTEVYK, peptide start residue: 163) (UniProt Q8IXQ5)",-1.09
10,"NAV2 (peptide sequence: QNLEETMSSLR, peptide start residue: 270) (UniProt Q8IVL1)",0.189
11,"SIX5 (peptide sequence: TIWDGEETVYCFKER, peptide start residue: 197) (UniProt Q8N196)",-0.273
12,"MAML2 (peptide sequence: QQLLLQQQMLADAEK, peptide start residue: 769) (UniProt Q8IZL2)",0.264
13,"NUDCD3 (peptide sequence: SMATVDEEEQAVLDR, peptide start residue: 293) (UniProt Q8IVD9)",-0.322
14,"CHPF (peptide sequence: AHVAELER, peptide start residue: 568) (UniProt Q8IZ52)",0.485
15,"PLD3 (peptide sequence: ALLNVVDNAR, peptide start residue: 310) (UniProt Q8IV08)",-0.163
16,"MPP5 (peptide sequence: QAFEADIAAGK, peptide start residue: 534) (UniProt Q8N3R9)",0.566
17,"LSR (peptide sequence: VLYYMEK, peptide start residue: 404) (UniProt Q86X29)",-0.229
18,"EXOC8 (peptide sequence: MNLMTPEALGK, peptide start residue: 578) (UniProt Q8IYI6)",0.899
19,"VPS52 (peptide sequence: GFFSKPSLR, peptide start residue: 331) (UniProt Q8N1B4)",0.332
20,"NCAPG2 (peptide sequence: VQIHDTR, peptide start residue: 747) (UniProt Q86XI2)",0.563
21,"CDAN1 (peptide sequence: VLPQGPPTPAK, peptide start residue: 64) (UniProt Q8IWY9)",0.268
22,"NOSTRIN (peptide sequence: NLKEFSQNGENFCK, peptide start residue: 16) (UniProt Q8IVI9)",-0.908
23,"ASXL1 (peptide sequence: SGTSPLACLNAMLHSNSR, peptide start residue: 48) (UniProt Q8IXJ9)",0.333
24,"UniProt Q86XI6 (peptide sequence: STQGMTKPHSGPDLGISFDQFGSPR, peptide start residue: 239)",-0.253
25,"DHX40 (peptide sequence: TLTTDILFGLLKK, peptide start residue: 179) (UniProt Q8IX18)",-0.442
26,"CARM1 (peptide sequence: SSNLLDLKNPFFR, peptide start residue: 463) (UniProt Q86X55)",-0.127

# Fetched one by one from the entries so far (2):
row,Target,log2 fold change
17,"LSR (peptide sequence: VLYYMEK, peptide start residue: 404) (UniProt Q86X29)",-0.229
13,"NUDCD3 (peptide sequence: SMATVDEEEQAVLDR, peptide start residue: 293) (UniProt Q8IVD9)",-0.322
